In paper PMC12040169 (PLOS Biology, 2025):
Some of the results follow.

Each compound was assayed on T1, CTL2-GFP (C. trachomatis L2/434/Bu, GFP-expressing). Settings: bulk GFP, single well; 28.5 h, 10 µM; inhibitor.
T1 construct: L2/434/Bu, GFP-expressing
Set-up: species or system HeLa; Intracellular C. trachomatis growth in HeLa cells, bulk GFP fluorescence relative to DMSO
With `Cc1ccc(NC(=O)N2CCc3ccccc3C2)cc1` [CBK155309] the “% of control remaining” value was 108.38%.
In the case of `CC1CCc2c(C(=O)N3CCC4(CC3)NC(=O)NC4=O)csc2C1` (stereo not shown) [CBK305741], the “% of control remaining” value is reported as 137.24%.
For `Nc1nc(SCCCN2C(=O)c3cccc4cccc(c34)C2=O)nc2sc3c(c12)CCCC3` [CBK264433], the “% of control remaining” value was 100%.
With `CS(=O)(=O)NC[C@H]1O[C@@H](Cc2nc(-c3ccc(F)cc3)no2)[C@H](O)[C@@H]1O` [CBK288906] the “% of control remaining” value was 143.567%.
With `CCOC(=O)N1CCC(NC(=O)N2CCN(c3ccccc3)CC2)CC1` [CBK155210] the “% of control remaining” value was 111.655%.
With `CCOc1cc(CNCc2ccccn2)cc(Cl)c1OCC` [CBK268516C] the “% of control remaining” value was 107.863%.
With `COCCNc1cc(-c2ccc(NC(C)=O)cc2)ncn1` [CBK090799] the “% of control remaining” value was 123.452%.
`CCc1c(C)nc2nnc(NC(=O)C(F)(F)F)n2c1O` [CBK020762] was tested, and the “% of control remaining” value was 120.617%.
For `CNC1CCC2(c3ccc(OC)c(OC)c3)CCN(C)C2C1` (stereo not shown) [CBK059586C], the “% of control remaining” value was 150.284%.
`Cc1cc(C)nc(NC(=O)NS(=O)(=O)Nc2ccccc2Cl)n1` [CBK260912] was tested, and the “% of control remaining” value was 112.907%.
`CS(=O)(=O)NC1CCCN(c2ccc3ccccc3n2)C1` (stereo not shown) [CBK306457] was tested, and the “% of control remaining” value was 66.0188%.
With `NC(=O)CSc1nnc(NC(=O)c2ccccc2)s1` [CBK287628] the “% of control remaining” value was 152.942%.
In the case of `Cc1cc(COc2nccnc2N2CCN(CCCO)CC2)no1` [CBK084197], the “% of control remaining” value is reported as 100%.
For `COc1ccc(C(C)NC(=O)c2c3c(nn2C)CCCC3)cc1F` (stereo not shown) [CBK281406], the “% of control remaining” value was 48.4404%.
`CCCCCNC(=O)C(Cc1ccc(O)c(C(=O)OCc2ccccc2)c1)NC(=O)OC(C)(C)C` (stereo not shown) [CBK001708] was tested, and the “% of control remaining” value was 112.955%.
`CN(C)c1cccc(-c2cccc(NCC(c3cccnc3)N(C)C)n2)c1` (stereo not shown) [CBK037697] was tested, and the “% of control remaining” value was 101.794%.
In the case of `CCOC(=O)c1cnc(Nc2nc3ccccc3o2)nc1CN1CCN(c2ccccc2)CC1` [CBK266927], the “% of control remaining” value is reported as 176.264%.
`Cc1nn(C)c(N2CCNCC2)c1NC(=O)Cc1cn(C)c2ccccc12` [CBK050254T] was tested, and the “% of control remaining” value was 118.189%.
With `Cc1ccccc1-c1ccccc1CC1(C(=O)N(C)C)CCN(C(=O)CC(C)(C)C)CC1` [CBK285715] the “% of control remaining” value was 142.316%.
In the case of `O=C(O)C1CC=CCC1C(=O)Nc1ccc(S(=O)(=O)N2CCc3ccccc32)cc1` (stereo not shown) [CBK268122], the “% of control remaining” value is reported as 109.55%.
With `COc1ccc2cc(CNc3ccc(F)c(F)c3)c(=O)[nH]c2c1` [CBK281934] the “% of control remaining” value was 132.448%.
For `CC(=O)c1ccc(-c2cnc3[nH]c(=O)n([C@H](C)c4ccccc4)c3n2)s1` [CBK064375], the “% of control remaining” value was 208.914%.
In the case of `Cc1ccc(Nc2nccc(C3CCCN(Cc4ccc5[nH]ccc5c4)C3)n2)nc1` (stereo not shown) [CBK286122], the “% of control remaining” value is reported as 108.348%.
In the case of `OCCN1CCN(c2nc(NCC3CCCO3)c3ccccc3n2)CC1` (stereo not shown) [CBK266659C], the “% of control remaining” value is reported as 189.371%.
With `CC(C)n1nnnc1SCCC(=O)N1CCN(c2ccc(F)cc2)CC1` [CBK304602] the “% of control remaining” value was 122.352%.
With `Cc1cc(NCn2nnc3ccccc32)ccc1Br` [CBK057031] the “% of control remaining” value was 128.995%.
For `CC(C)CC(=O)N1C[C@H]2CCCN(Cc3ccsc3)[C@H]2C1` [CBK285290], the “% of control remaining” value was 110.844%.
With `CCOC(=O)c1c(NC(=O)Cn2cnc3ccccc32)sc2c1CCCC2` [CBK260917] the “% of control remaining” value was 74.1338%.
In the case of `COc1cccc(CNC(=O)NC(=O)C2CCN(C)CC2)c1` [CBK034828], the “% of control remaining” value is reported as 105.853%.
`CC(C)Nc1nc2ccccc2nc1Sc1cccc(C(=O)O)c1` [CBK115955T] was tested, and the “% of control remaining” value was 96.7769%.
For `CCCCC(c1cccnc1)N(C)C(=O)c1cnc(C)c(C)c1` (stereo not shown) [CBK307121], the “% of control remaining” value was 121.565%.
`O=[N+]([O-])c1ccc(F)cc1NS(=O)(=O)c1ccccc1` [CBK000674] was tested, and the “% of control remaining” value was 157.928%.
With `CCOC(=O)C1CCCN(Cc2c(C)nn(C)c2Cl)C1` (stereo not shown) [CBK304838] the “% of control remaining” value was 96.5769%.
In the case of `NCCNC(=O)c1cc(-c2ccc(Cl)cc2)[nH]n1` [CBK160975], the “% of control remaining” value is reported as 116.343%.
For `CCOC(=O)C(C)n1nc(C)n2c(cc3ccsc32)c1=O` (stereo not shown) [CBK284079], the “% of control remaining” value was 118.576%.
With `Cc1cccnc1C(Cc1ccsc1)NS(=O)(=O)c1ccc2[nH]c(=O)[nH]c(=O)c2c1` (stereo not shown) [CBK286356] the “% of control remaining” value was 79.8024%.
In the case of `O=C(c1cccnc1)N1CCC(c2cccc(Cc3ccc(C(F)(F)F)cc3)n2)CC1` [CBK286222], the “% of control remaining” value is reported as 82.3836%.
In the case of `Cc1nc2c(c(=O)[nH]1)CN(C(=O)c1cc(C3CC3)oc1C)CC2` [CBK283650], the “% of control remaining” value is reported as 107.623%.
In the case of `Cc1noc(C)c1S(=O)(=O)Nc1cccc(-c2cnco2)c1` [CBK067108], the “% of control remaining” value is reported as 98.5948%.
With `CC(C)c1cccc(N2CC(C(=O)Nc3cc(S(C)(=O)=O)ccc3F)CC2=O)c1` (stereo not shown) [CBK296751] the “% of control remaining” value was 135.21%.
For `S=c1nc(-c2ccco2)n(Cc2ccccc2)c(=S)n1/C(=N/Cc1ccccc1)c1ccco1` [CBK223550], the “% of control remaining” value was 100%.
`Cc1ccc(C)c(OCCNCCN(C)C)c1Cl` [CBK267816C] was tested, and the “% of control remaining” value was 105.978%.
In the case of `COc1ccc(-c2cc(C3CCN(C(=O)C4CC4)C3)[nH]n2)cc1` (stereo not shown) [CBK285263], the “% of control remaining” value is reported as 156.833%.
For `Cc1ccccc1-c1cnc(N)c(-c2ccc(O)cc2)n1` [CBK115544], the “% of control remaining” value was 116.251%.
For `CNS(=O)(=O)N1CCN(S(=O)(=O)NC)CC1` [CBK007064], the “% of control remaining” value was 112.418%.
In the case of `CCOC1C(OCC)N(S(=O)(=O)c2ccc(C)cc2)CCN1S(=O)(=O)c1ccc(C)cc1` (stereo not shown) [CBK261832], the “% of control remaining” value is reported as 85.5163%.
`CS(=O)(=O)CCNC(=O)c1cnc(-c2cccc(C(F)(F)F)c2)c(-c2ccncc2)c1` [CBK036661] was tested, and the “% of control remaining” value was 101.509%.
With `CC(=O)Nc1cnn(-c2ccc(C(=O)N3CCCCC3c3nc4ccccc4[nH]3)cc2)c1` (stereo not shown) [CBK291109] the “% of control remaining” value was 138.498%.
`COc1cccc(NC(=S)NCCc2ccccn2)c1` [CBK265245] was tested, and the “% of control remaining” value was 84.4883%.
With `Cc1ccccc1OCCSc1nc2ccccc2n1CCO` [CBK262523] the “% of control remaining” value was 112.057%.
With `Cc1ccc(-c2csc(NC(=O)c3c(C)noc3C)c2C(=O)NC2CC2)cc1` [CBK268141] the “% of control remaining” value was 114.319%.
With `CCNC(=O)N(C)c1c(CC)nc2c(OCC3CCCCC3)cccn12` [CBK147795] the “% of control remaining” value was 106.826%.
`CC(C)C(=O)N1CCN(C(=O)Cn2c(-c3ccc(Cl)cc3)n[nH]c2=S)CC1` [CBK297910] was tested, and the “% of control remaining” value was 135.346%.
`O=C(NCCCn1cccc1)N1CCN(Cc2ccc(F)cc2)CC1` [CBK306994] was tested, and the “% of control remaining” value was 87.7076%.
For `COc1ccccc1-c1ccc(NC(=O)c2ccc3c(c2)ncn3C)cc1` [CBK285652], the “% of control remaining” value was 109.823%.
In the case of `CCOC(=O)Cn1c(-c2cccs2)cc2cccnc21` [CBK282267], the “% of control remaining” value is reported as 98.8963%.
In the case of `Cc1ccccc1Nc1nc(N)nc(CN2CCOCC2)n1` [CBK305646], the “% of control remaining” value is reported as 116.558%.
For `CO[C@H]1CC[C@H](C(=O)N2C3CCC2CC(O)(c2ccco2)C3)CC1` (stereo partly shown) [CBK284107], the “% of control remaining” value was 133.963%.
In the case of `Cc1ncsc1C(=O)N1CCC2(C/C=C/C[C@H]3COCC[C@H]3NC(=O)[C@@H](CC(C)C)NC2=O)CC1` [CBK292187], the “% of control remaining” value is reported as 120.611%.
With `Cc1nc2ccc(C(=O)NC3CCN(Cc4ccccc4)CC3)cn2c1N(C)C(=O)c1cccs1` [CBK146529] the “% of control remaining” value was 136.4%.
In the case of `O=C(NC(Cc1c[nH]c2ccccc12)C(=O)O)c1ccco1` (stereo not shown) [CBK217706], the “% of control remaining” value is reported as 115.441%.
With `COc1cc2c(cc1OC)C(c1ccccc1)N(Cc1ccc(OCCO)cc1)CC2` (stereo not shown) [CBK286359] the “% of control remaining” value was 109.13%.
For `CC(=O)Nc1ccc(S(=O)(=O)Nc2ccc(C(=O)O)cc2)cc1` [CBK050427], the “% of control remaining” value was 100%.
With `O=C(NCc1ccc2occc2c1)c1ccc2[nH]ccc2c1` [CBK149055] the “% of control remaining” value was 117.985%.
With `Cc1[nH]c2c(C)cccc2c1CC(=O)NC1CCCN(C)C1` (stereo not shown) [CBK282485] the “% of control remaining” value was 127.274%.
For `CCN(CC)CCC(=O)c1ccc(Cl)cc1` [CBK015906C], the “% of control remaining” value was 149.097%.
In the case of `CC(C)N1CCC(=NNC(=O)c2cc(O)c(O)c(O)c2)CC1` [CBK262626], the “% of control remaining” value is reported as 110.022%.
With `Cc1c(C(=O)N2CCCC2C(N)=O)nnn1Cc1ccc(F)cc1F` (stereo not shown) [CBK305925] the “% of control remaining” value was 106.713%.
With `Cc1ccccc1Nc1nc(N)nc(CN2CCCC2C(=O)N(C)C)n1` (stereo not shown) [CBK305638] the “% of control remaining” value was 115.674%.
In the case of `Cc1cnn(C(C)C(=O)N2CCc3c(nc(N(C)C)nc3N(C)C)C2)c1` (stereo not shown) [CBK307556], the “% of control remaining” value is reported as 103.108%.
With `CCOc1ccccc1NC(=O)c1cc2cccnc2n(Cc2ccc(Cl)cc2)c1=O` [CBK294395] the “% of control remaining” value was 113.943%.
`CCn1c(C(O)c2ccccc2)n[nH]c1=S` (stereo not shown) [CBK015110] was tested, and the “% of control remaining” value was 172.1%.
`Cc1[nH]c2ccccc2c1C(=O)CCC(=O)O` [CBK260871] was tested, and the “% of control remaining” value was 114.595%.
With `O=C(Cc1ccc(F)cc1)N1CCCC1c1cccc(Cc2ccc(F)cc2)n1` (stereo not shown) [CBK286234] the “% of control remaining” value was 118.214%.
With `CC(O)(CC#N)c1ccccc1` (stereo not shown) [CBK028508] the “% of control remaining” value was 98.6159%.
In the case of `CC(=O)C(CC(=O)O)C1=C(O)CC(C)(C)CC1=O` (stereo not shown) [CBK287127], the “% of control remaining” value is reported as 119.775%.
In the case of `Cc1ccc(S(=O)(=O)Nc2ccc(C(=O)Nc3ccc(S(=O)(=O)N4CCCCC4)cc3)cc2)cc1` [CBK269000], the “% of control remaining” value is reported as 107.863%.
`CCOc1ccc(NC(NC(=O)Nc2ccccc2)C(Cl)(Cl)Cl)cc1` (stereo not shown) [CBK261294] was tested, and the “% of control remaining” value was 106.332%.
`COc1ccc(Cl)cc1N1CCN(CCO)CC1` [CBK138339] was tested, and the “% of control remaining” value was 105.765%.
